From article PMC5539197, “CD14 is critical for TLR2-mediated M1 macrophage activation triggered by N-glycan recognition” (Scientific Reports, 2017)

Columns and labels:
[1] = target: ArtinM (Artocarpus heterophyllus (jackfruit)); test: condition: only ArtinM pre-incubated with Manα1-3(Manα1-6)Man (1 mM); co-IP; as the lectin immunoprecipitation, but with ArtinM pre-incubated with Manα1-3(Manα1-6)Man (1 mM); only the target purified
[2] = target: ArtinM (Artocarpus heterophyllus (jackfruit)); test: co-IP; lectin immunoprecipitation: 100 µg lysate protein incubated with 10 µg ArtinM for 16 h at 4 °C, then 10 µg purified anti-ArtinM immunoglobulin Y added; centrifuged, washed with ice-cold acetone; western blot with anti-CD14 or anti-TLR2; only the target purified

B1: CD14 (receptor, UniProt P08571 20-345)
chain: TTPEPCELDDEDFRCVCNFSEPQPDWSEAFQCVSAVEVEIHAGGLNLEPFLKRVDADADPRQYADTVKALRVRRLTVGAAQVPAQLLVGALRVLAYSRLKELTLEDLKITGTMPPLPLEATGLALSSLRLRNVSWATGRSWLAELQQWLKPGLKVLSIAQAHSPAFSCEQVRAFPALTSLDLSDNPGLGERGLMAALCPHKFPAIQNLALRNTGMETPTGVCAALAAAGVQPHSLDLSHNSLRATVNPSAPRCMWSSALNSLNLSFAGLEQVPKGLPAKLRVLDLSCNRLNRAPQPDELPEVDNLTLDGNPFLVPGTALPHEGSMN
Q: B1 was tested. Which binding [1] did it give?
A: no binding

Q: And the binding [2]?
A: binds

Results are given in words; binding and its absence hold for the method and conditions named. Binding seen in cells or lysates may run through a third protein. For some assays here: A result given as binding can be weak or reduced; the word gives no strength.
